Reference: PubChem BioAssay AID602196 (INSERM, 2012)
Aim: 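Modifiers of cisplatin sensitivity in A549 cells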. Cells: human A549 lung cancer cells. Reagent: siRNA pair against human genes. Timing: 48 h transfection before cisplatin; time from cisplatin to read-out not stated. Treatment: cisplatin at a dose killing half of control-siRNA cells; exact dose and duration not given. Read-out: 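Shift in cisplatin death relative to control siRNA, from -50 (all cells die) to +50 (no cells die); siRNAs harmful on their own scored 0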. Direction: two-siRNA summed score (-2 to +2): higher = both siRNAs protect from cisplatin killing; -2 means both sensitise; mean protection from cisplatin (shift in death) and protection from cisplatin (shift in death), siRNA C and protection from cisplatin (shift in death), siRNA D: higher = protection from cisplatin killing. Call rule: 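Each siRNA scores 0 if harmful alone by LDH or WST-1, otherwise +1 if it reduces and -1 if it increases cisplatin killing; a gene is active when both siRNAs agree (sum +2 or -2)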. Meaning of the calls: active = both siRNAs shift cisplatin killing the same way; inactive = no consistent shift, or siRNA harmful alone.
This is one part, drawn at random, of about 23,000 reagents tested. Of all reagents, 455 (2%) were called active. 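Active includes both protection and sensitisation; some change values fall well beyond the stated -50 to +50 range.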 Unmarked entries are inactive. Reagents against one gene are numbered here. No sequences are given here. Not given: the amount of reagent.

gene knocked down	reagent no.	two-siRNA summed score (-2 to +2)	mean protection from cisplatin (shift in death) (%)	protection from cisplatin (shift in death), siRNA C (%)	protection from cisplatin (shift in death), siRNA D (%)
MON2	1	0	5.5	9.7	1.3
ANKRD30BP2	1	0	-2.1	-8.5	4.2
CCDC59	1	1	8.5	0.4	16.5
LOC200213	1	1	19.6	1.6	37.6
ZBTB8A	1	0	-1.2	1.9	-4.2
LOC342934	1	0	30.4	7.4	53.4
SNX5	1	-1	-10.6	-11.2	-10
LOC442143	1	0	0.3	5.4	-4.8
ZNF589	1	0	0	8.2	-8.1
LOC441831	1	0	17.2	24.3	10.1
TLK1	1	1	14.9	11.1	18.6
PNPLA8	1	0	14.1	15.7	12.5
LOC440890	1	0	10.9	11.4	10.5
ZRANB3	1	1	31.3	41.6	21
GOLGA2P9	1	0	7.3	11.3	3.3
POC1A	1	-1	-6	-16.8	4.9
C1D	1	0	-1.3	5.3	-8
LOC390245	1	2 (active)	18.6	23.7	13.4
OGFRL1	1	1	10.8	33.3	-11.6
KCNJ10	1	0	-0.4	6.4	-7.2
PRRC2A	1	0	13.1	17.9	8.3
LINC02433	1	0	5.6	8.6	2.6
GALNT4	1	0	6.8	5.3	8.3
CNBD2	1	0	-4.6	-9.5	0.4
LOC286080	1	0	17.5	7.7	27.3
FYB2	1	0	4.8	4.1	5.5
LOC389177	1	0	4.2	12.6	-4.3
HNF4G	1	-1	-9.7	16.8	-36.2
SLC8A3	1	1	14	11.5	16.6
LOC441044	1	0	0	3.9	-4
CENPVL2	1	0	13.5	5.9	21.1

Next part; the last 5 above are carried over.
gene knocked down	reagent no.	two-siRNA summed score (-2 to +2)	mean protection from cisplatin (shift in death) (%)	protection from cisplatin (shift in death), siRNA C (%)	protection from cisplatin (shift in death), siRNA D (%)
LOC389177	1	0	4.2	12.6	-4.3
HNF4G	1	-1	-9.7	16.8	-36.2
SLC8A3	1	1	14	11.5	16.6
LOC441044	1	0	0	3.9	-4
CENPVL2	1	0	13.5	5.9	21.1
HCAR2	1	1	7.7	-1.8	17.1
PYHIN1	1	1	8.4	5.3	11.6
LINC03103	1	0	-1.6	-4.1	0.8
ZNF606	1	0	-3.5	2.1	-9
ADGRG4	1	0	-1.5	3.1	-6.1
NUP188	1	1	2.2	12.2	-7.8
BCL2	1	-1	-8.1	-1.9	-14.3
FANCF	1	0	12.3	0.8	23.8
SPATA1	1	0	-3.7	-4.1	-3.2
GABPB2	1	0	-2	7.4	-11.4
PRDM15	1	0	-3.7	5	-12.4
OPRK1	1	-1	3.3	-20.9	27.4
LOC440799	1	1	16.4	13.4	19.5
LOC339521	1	1	10	-3.5	23.4
PPP2CB	1	0	0.6	4.5	-3.2
IKBKG	1	2 (active)	17.3	14.9	19.6
SLC4A4	1	0	-1.3	6.5	-9
FOXN3-AS1	1	0	-1.8	0.6	-4.2
SLC35F6	1	0	0.4	-11	11.8
TSLIG2	1	0	4.4	-10.7	19.5
CUTA	1	0	12.8	15.6	9.9
CUTA	2	1	17.5	21.7	13.3
LOC440069	1	0	-2.6	-3.5	-1.7
LOC92129	1	0	15.1	16.3	13.9
LOC388959	1	0	9.1	5.8	12.3
VPS13D	1	1	8.8	18.1	-0.5
CHPF2	1	-1	-5	3.7	-13.8
LOC401500	1	0	11	13.6	8.3
LINC00885	1	1	15.5	21.7	9.3
MGC35440	1	0	-5.3	0.2	-10.7
PHF2	1	0	-6.1	13.4	-25.7
USP24	1	0	7.6	4.1	11.1
MTMR14	1	-1	-1.8	-12.4	8.9
BDKRB2	1	1	15.5	25.8	5.2
ACBD3	1	0	2	-6.7	10.6
DPPA2	1	-1	-13.3	-21	-5.6
LOC388545	1	0	4.3	3.4	5.1
LOC440564	1	1	15.3	18.6	12
LOC387917	1	0	-3.7	0.9	-8.3
C22orf31	1	0	0	-1.3	1.2
GHDC	1	0	2.6	-0.2	5.4
CCSAP	1	0	4.4	8.2	0.5
